Drawing on publication PMC10022743, this text covers binding for one molecule.

No constants are given. Whether binding was seen depends on the method and setting. In cells and extracts the contact can be indirect. Some binding calls cover weakened binding; strength is not graded here. Where a sequence is shown, tags or fusion partners need not be part of it.

The experiment concerns the target T1, HA–YKT6-WT (full-length, siRNA-resistant) (human), O15498.
T1 chain: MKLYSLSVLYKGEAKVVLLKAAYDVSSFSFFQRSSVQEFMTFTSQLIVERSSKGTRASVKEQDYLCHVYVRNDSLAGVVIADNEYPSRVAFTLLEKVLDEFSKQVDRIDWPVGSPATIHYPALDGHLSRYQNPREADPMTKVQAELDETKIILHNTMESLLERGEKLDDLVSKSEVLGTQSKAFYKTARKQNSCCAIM
Description: co-IP; YKT6 siRNA-treated HEK293T cells stably expressing HA–YKT6 constructs, 2 h EBSS and 300 nM Torin 1; lysis in TNE buffer with 1% Triton X-100; HA–agarose beads, 2 h at 4°C; western blot. The following applies: remark: other sources report otherwise.

B1: SNAP29, O95721 1-258 (protein)
chain: MSAYPKSYNPFDDDGEDEGARPAPWRDARDLPDGPDAPADRQQYLRQEVLRRAEATAASTSRSLALMYESEKVGVASSEELARQRGVLERTEKMVDKMDQDLKISQKHINSIKSVFGGLVNYFKSKPVETPPEQNGTLTSQPNNRLKEAISTSKEQEAKYQASHPNLRKLDDTDPVPRGAGSAMSTDAYPKNPHLRAYHQKIDSNLDELSMGLGRLKDIALGMQTEIEEQDDILDRLTTKVDKLDVNIKSTERKVRQL
Take B1: the binding entry is reported as “binds”.
